Experimental data published in PubChem BioAssay AID651664 (NMMLSC, 2012).
The campaign covered roughly 1,800 compounds. Fewer than 10 were called active.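 How the source made its calls: active means inhibition of granule release above a set limit; inactive means the rest.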 This is one part of the list.

assay: LAMP-1 surface externalization blockers in TALL-104 cells – cell-based, flow cytometry, validation set (AID 651664); details: TALL-104 LAMP-1 externalization, at 15.2 µM, active compounds read high, stimulated with thapsigargin and PMA

inhibition, inactive:
COC(=O)Cn1ncn2c(cc3oc(C)cc32)c1=O -1.5%
CCC(Sc1nnnn1C)C(=O)Nc1ccc(C(C)=O)cc1 (stereo not given) 2.8%
CCCNC(=O)CN(C1CCCCC1)S(C)(=O)=O 2.1%
Cc1nc2ccc(F)cc2cc1C(=O)NCC1CCCO1 (stereo not given) -2.9%
C/C=C(\C)CN1CCN(c2ccc(C)cc2)CC1 -1.7%
O=c1cc(CN2CCN(c3cccc(Cl)c3)CC2)c2cc(O)c(-c3ccccc3)cc2o1 1.5%
Cc1ccc(CCN2CC(C(=O)NC3CCCC3)CC2=O)cc1 (stereo not given) 0.7%
COc1ccccc1C(=O)Nc1nc2nc(-c3ccccc3)cc(=O)n2[nH]1 0.2%
Cc1cc2c(cc1C)NC(c1nc3ccccc3[nH]1)C1=C(CC(C)(C)CC1=O)N2 (stereo not given) -3.1%
CN(Cc1ccccc1)C(=O)C1CCCN(Cc2ccc(Cl)cc2)C1 (stereo not given) -1.9%
CCOC(=O)CSc1ncnc2c1sc1nc(N3CCOCC3)c3c(c12)CCCC3 0.1%
COc1ccc(OC)c(C(=O)c2coc3ccc(OC)cc23)c1 -3.2%
Cn1c(NN)nc2sc3c(c2c1=O)CCC3 1.1%
COn1c(SCC(N)=O)nc2ccccc2c1=O -1.7%
COc1ccc(-c2csc3nc(C)n(-n4cccc4)c(=O)c23)cc1 -0.7%
Cc1ccc2c(c1)cc1c(=O)[nH]ncn12 -2.8%
Cc1cccc(C)c1NC(=O)N1CCC(N2CCCCC2)CC1 9%
COc1ccc(/C=C/C(=O)Oc2ccc(/C=N/NC(=O)COc3c(C)cccc3C)cc2)cc1 -1.2%
O=C(NCc1ccc2c(c1)OCO2)c1ccc2snnc2c1 -0.7%
CCOC(=O)c1nnc2cc(-c3ccc(Br)cc3)nn2c1C 0%
O=C(COc1ccc(Cl)cc1)NCCCn1ccnc1 2%
COc1ccc(C2CC(c3c(-c4ccccc4)c4cc(Cl)ccc4[nH]c3=O)=NN2S(C)(=O)=O)cc1 (stereo not given) 5.3%
COc1ccc(Nc2nc(C)cc(C)c2C(N)=O)cc1 1.3%
O=C(COc1ccc(F)cc1)c1ccc2c(c1)CCCC2 -2.8%
CCn1c(N)c(C(=O)NCCOC)sc1=S 0%
O=C(CSc1nc2ccccc2[nH]1)N1CCN(S(=O)(=O)c2ccc(Cl)cc2)CC1 -3.2%
Cc1ccc(-n2nnnc2Sc2nc([N+](=O)[O-])nn2C)c(C)c1 -2.7%
NS(=O)(=O)c1ccc(N2N=C(c3ccccc3)CC2c2ccc(F)cc2)cc1 (stereo not given) -1.9%
C1=C(c2ccccc2)Nc2nnnn2C1c1cccs1 (stereo not given) 0.7%
CCOC(=O)C1=C(C)OC(N)=C(C#N)C1C1CCCCC1 (stereo not given) -2.6%
Cc1ccc(CSc2nc3c(c(N(C)C)n2)CCCC3)cc1 -0.6%
Cc1ccc2c(c1)C(CCN)C(=O)N2Cc1ccccc1 (stereo not given) -0.2%
CN(c1ccc(OCC(=O)N2CCCCC2)cc1)S(=O)(=O)c1cccs1 -6.7%
c1ccc(-c2cc(-c3nc(-c4ccccn4)no3)c3ccccc3n2)cc1 -0.3%
CN(C)c1nc(-c2ccccc2)cc(C(F)(F)F)c1C#N -1.3%
O=C(Cc1sc(-c2ccccc2Cl)nc1-c1ccccc1)Nc1ccc(F)cc1 0.8%
CCOC(=O)c1nnn(-c2nonc2N)c1-c1ccc(C)cc1 -2.2%
COc1ccc(OC)c(NC(=O)C2CC(=O)N(c3ccc(Br)cc3)C2)c1 (stereo not given) -1.1%
CC(C)(C)c1ccc(C(=O)NCCC(=O)N2CCN(c3ncccn3)CC2)cc1 -3.2%
CCCCN(CCCC)CP(=O)(c1ccccc1)c1ccccc1 0%
COc1ccccc1N1CCN(C(=O)Cn2nc(C(F)(F)F)c3c2CCC3)CC1 0.7%
C1CCc2nnc(-c3nnc4n3CCCCC4)n2CC1 -1%
Cc1cc(N)ccc1N1CCCC1 -0.1%
C=C(C)COc1ccc(-c2n[nH]c(C)c2-c2ccc(OC)cc2)c(O)c1 0.8%
S=c1[nH]c2ccc(Cl)cc2[nH]1 -3.8%
O=C(/C=C/Nc1ccc(F)cc1)c1cccs1 -0.8%
CC1(C)CC(c2csc(N)n2)CCO1 (stereo not given) 0%
CC1=C(C(=O)Nc2ccccc2)C(c2ccncc2)C(C#N)=C(SCC(=O)NC2CC2)N1 (stereo not given) -0.7%
O=C(Nc1cnc2ccccc2c1)C1COc2ccccc2O1 (stereo not given) 2.9%
N#Cc1nc(-c2ccco2)oc1NCc1ccc(F)cc1 -0.7%
COc1ccc2[nH]cc(C(=O)CN3CCCCC3)c2c1 -0.8%
Cc1ccc(S(=O)(=O)NCc2ccncc2)cc1 1.6%
COc1ccc2nc(NC(=O)Cc3cccs3)sc2c1 3.6%
CC(C)(C)c1csc(NC(=O)c2ccc3nccnc3c2)n1 0.8%
O=C(NCCc1ccc(Cl)cc1)C1CCN(C(=O)c2sccc2-n2cccc2)CC1 0.4%
CCNc1nc(OCCNS(=O)(=O)c2cc(C)ccc2C)nc(N(C)C)n1 4.8%
Cc1cccc(/C(N)=N/OC(=O)CCCN2C(=O)c3ccccc3C2=O)c1 1.9%
O=C(COC(=O)c1cccs1)c1ccccc1 -2.8%
O=C(NCC1CCCO1)/C(=C\c1ccco1)NC(=O)c1ccccc1 (stereo not given) -2.2%
CN(C)CCCNC1=CC(=O)OC12CCCCC2 7.3%
COc1ccccc1N(C(=O)c1ccco1)C(C(=O)NC1CCCC1)c1cccnc1 (stereo not given) -0.8%
COc1ccc(OC)c(C2C(C#N)=C(N)Oc3cc(C)[nH]c(=O)c32)c1 (stereo not given) 0.1%
COc1ccc(N/N=C(/C#N)S(=O)(=O)c2nsc(C)c2C#N)cc1 0.9%
COc1cccc(C2C(C#N)=C(N)OC(C(C)(C)C)=C2C#N)c1 (stereo not given) 1.2%
CCCCN1CC(C(=O)NC2CCCCC2)CC1=O (stereo not given) -0.7%
O=C(CCSc1ccc(Cl)cc1)c1cccs1 0.9%
O=C1C2C3C=CC(C3)C2C(=O)N1c1ccc(-c2nc3ccccc3o2)cc1 (stereo not given) -0.3%
O=C1C(c2ccnc3ccccc23)=C(O)c2ccccc21 -0.3%
Cc1ccccc1OCC(=O)OC1CCN(C)CC1 0.1%
CCOC(=O)c1sc(NC(=O)c2c(OC)cccc2OC)nc1C -1.9%
O=C(c1cc2cc(Cl)ccc2oc1=O)N1CCCC1 23.5%
COc1ccc(-c2n[nH]c(C)c2-c2ccc(Cl)cc2)c(O)c1 1.8%
O=C(N/C=N/OCc1cccc(C(F)(F)F)c1)N1OC[C@@H]2COc3ccc4ccccc4c3[C@@H]21 -3.7%
CCn1c(C)nc2cc(-c3nc4n(n3)Cc3ccccc3-4)ccc21 -1.2%
Cc1noc(C)c1COc1cccc(C(=O)OCCOc2ccc(F)cc2)c1 0.1%
Cc1ccccc1OC(C)c1nc(-c2ccccc2)no1 (stereo not given) 6.7%
N#CC(c1ccccc1)c1ccc2c(C(F)(F)F)cc(C(F)(F)F)nc2n1 (stereo not given) 54.5%
O=S(=O)(c1ccc(S(=O)(=O)N(Cc2ccco2)Cc2ccccc2Cl)cc1)N1CCCC1 1.5%
CCN(CC)C(=O)CSc1nc2ccccc2c(=O)[nH]1 0.4%
COc1ccc(CC(=O)Nc2cc(C)on2)cc1OC -0.9%
Cc1ccc(Cn2ccc(=O)c(OCc3c(Cl)cccc3Cl)c2C)cc1 -1.6%
COc1cc(-c2ncc3ccccn23)cc(OC)c1OC 3.5%
c1ccc(Sc2cnc3ccccc3n2)cc1 1.7%
CCOc1ccc(CCNC(=O)C2CCN(c3nn4c(=O)cc(C)nc4s3)CC2)cc1 3.6%
C=CCn1cc(-c2cccc(Cl)c2)cc(C#N)c1=O 6.4%
CCN=C1S/C(=C\c2ccc(Sc3ccc(Cl)cc3)o2)C(=O)N1CC 3.7%
COc1ccc(-c2cc(C(F)(F)F)n3ncc(C(=O)NCC4CCCO4)c3n2)cc1OC (stereo not given) 1.8%
Cn1c2c(c(=O)n(C)c1=O)[C@@H]1c3c(ccc4ccccc34)OC[C@@H]1CO2 3.1%
CC(C)(C)NC(=O)C(=O)N/N=C/c1ccc(Br)cc1 -2.4%
Cn1cnnc1Sc1cc(N2CCN(S(=O)(=O)c3ccc(Cl)c(Cl)c3)CC2)ccc1[N+](=O)[O-] 0.3%
O=C(NC1CCCCCC1)c1nc2ncccn2n1 -2.4%
COC(=O)c1ccccc1NC(=S)NC(=O)c1ccccc1 1.1%
Cc1nc(SCCCSc2n[nH]c(C)n2)n[nH]1 -1.5%
CCOc1ccc(N2C(=O)CC(NCCc3ccc(S(N)(=O)=O)cc3)C2=O)cc1 (stereo not given) 15.9%
Cc1nnc(SCC(=O)c2cc(C)n(C3CC3)c2C)s1 1.3%
COc1ccc(-c2ccc(-c3noc(-c4ccccc4OC)n3)c(OC)n2)cc1 -0.5%
Cc1ccc(C(=O)N/C(=C/c2ccc(-c3cccc([N+](=O)[O-])c3)o2)C(=O)NC(C)C)cc1 -2.7%
COc1ccc2c(c1OC)C(=O)N(c1cccc(C)c1)C2=O 1.1%
N#Cc1cccc(NC(=O)CN2NS(=O)(=O)c3ccccc3C2=O)c1 1.1%
C=CCc1c(C)nc(SCc2nc3ccccc3c(=O)[nH]2)[nH]c1=O 2%

23 successive compounds from above:
inhibition, inactive:
COc1ccc(-c2csc3nc(C)n(-n4cccc4)c(=O)c23)cc1 -0.7%
Cc1ccc2c(c1)cc1c(=O)[nH]ncn12 -2.8%
Cc1cccc(C)c1NC(=O)N1CCC(N2CCCCC2)CC1 9%
COc1ccc(/C=C/C(=O)Oc2ccc(/C=N/NC(=O)COc3c(C)cccc3C)cc2)cc1 -1.2%
O=C(NCc1ccc2c(c1)OCO2)c1ccc2snnc2c1 -0.7%
CCOC(=O)c1nnc2cc(-c3ccc(Br)cc3)nn2c1C 0%
O=C(COc1ccc(Cl)cc1)NCCCn1ccnc1 2%
COc1ccc(C2CC(c3c(-c4ccccc4)c4cc(Cl)ccc4[nH]c3=O)=NN2S(C)(=O)=O)cc1 (stereo not given) 5.3%
COc1ccc(Nc2nc(C)cc(C)c2C(N)=O)cc1 1.3%
O=C(COc1ccc(F)cc1)c1ccc2c(c1)CCCC2 -2.8%
CCn1c(N)c(C(=O)NCCOC)sc1=S 0%
O=C(CSc1nc2ccccc2[nH]1)N1CCN(S(=O)(=O)c2ccc(Cl)cc2)CC1 -3.2%
Cc1ccc(-n2nnnc2Sc2nc([N+](=O)[O-])nn2C)c(C)c1 -2.7%
NS(=O)(=O)c1ccc(N2N=C(c3ccccc3)CC2c2ccc(F)cc2)cc1 (stereo not given) -1.9%
C1=C(c2ccccc2)Nc2nnnn2C1c1cccs1 (stereo not given) 0.7%
CCOC(=O)C1=C(C)OC(N)=C(C#N)C1C1CCCCC1 (stereo not given) -2.6%
Cc1ccc(CSc2nc3c(c(N(C)C)n2)CCCC3)cc1 -0.6%
Cc1ccc2c(c1)C(CCN)C(=O)N2Cc1ccccc1 (stereo not given) -0.2%
CN(c1ccc(OCC(=O)N2CCCCC2)cc1)S(=O)(=O)c1cccs1 -6.7%
c1ccc(-c2cc(-c3nc(-c4ccccn4)no3)c3ccccc3n2)cc1 -0.3%
CN(C)c1nc(-c2ccccc2)cc(C(F)(F)F)c1C#N -1.3%
O=C(Cc1sc(-c2ccccc2Cl)nc1-c1ccccc1)Nc1ccc(F)cc1 0.8%
CCOC(=O)c1nnn(-c2nonc2N)c1-c1ccc(C)cc1 -2.2%
